Assay results reported in US20220220174A1.
No constants are given. Whether binding was seen depends on the method and setting. Some results given as binding are weak or reduced against the parent protein; the word gives no strength.

Chains of the proteins cited; added tags and fusions are not shown. Lines headed by an entry give the natural chain unless they say otherwise; changes in a name come on top.
UniProt O55003: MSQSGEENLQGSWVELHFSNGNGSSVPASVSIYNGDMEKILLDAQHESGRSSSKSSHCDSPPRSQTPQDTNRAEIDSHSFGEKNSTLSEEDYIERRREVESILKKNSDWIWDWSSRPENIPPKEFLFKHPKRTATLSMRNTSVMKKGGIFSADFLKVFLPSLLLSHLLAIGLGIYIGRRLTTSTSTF

Target: recombinant BNIP3 (BCL-2 adenovirus E1B 19 kDa interacting protein-3) (mouse) (UniProt O55003)
Assay: peptide microarray, immobilised peptide, recombinant BNIP3

binding: binds
Binder: WVELHFFN [peptide containing BNIP3 amino acids 13-20 with a Ser-to-Phe substitution at position 19 (WVELHFFN)]
